Assay results taken from PubChem BioAssay AID504834 (National Center for Advancing Translational Sciences (NCATS), 2011).
In all, about 320,000 compounds went through this assay and about 22,000 (6.9%) were called active. This list was built around the results that the source calls inconclusive (neither active nor inactive); the mix of calls is not that of the screen. The call rests on the fitted dose curve; in most records, active means well fitted inhibition curve with a large enough effect; inconclusive means small, poorly fitted or top-dose-only effect, or another doubt; inactive means no such curve, though single readings can be large or run the other way. Potencies of inconclusive entries are doubtful fits and often do not repeat.
On the % scale 0 is the no-effect control and ±100 the full control effect; potency means the concentration at half of the fitted maximal effect.

Experiment: Primary qHTS for delayed death inhibitors of the malarial parasite plastid, 96 hour incubation
Conditions: P. falciparum luciferase reporter growth; series mostly up to 28.7 µM; activity change, negative = inhibition: at the top concentration
Method in brief: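 Plates of compound plus infected erythrocytes (2% hematocrit, 0.05% parasitemia final) incubate 96 hours, 37 C, 5% CO2. Detection reagent added; reduced luminescence from the parasites' luciferase reporter flags inhibition.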
For COc1ccc(C(=O)NC2CC2)cc1OC1CCN(Cc2cnn(C)c2)CC1, the Potency was inconclusive: 14.7 µM [inhibitor, single point].
In the case of Nc1nc(CN2CCN(c3ccccn3)CC2)nc(Nc2ccc(Cl)cc2)n1, the Potency is reported as inconclusive: 5.86 µM [inhibitor, partial curve, poor fit].
For CCCC(=O)Nc1c(-c2ccccc2)c(=O)c(C)nn1-c1ccccc1, the “activity change, negative = inhibition” value was inactive: -6.2%.
In the case of Cc1ccc(C(C)C)c(OCC(O)CN2CCc3ccccc3C2)c1 (centres undefined), the Potency is reported as inconclusive: 18.5 µM [inhibitor, single point].
In the case of CC(NC(=O)NC1CCCCC1)c1ccc2c(c1)OCO2 (centres undefined), the “activity change, negative = inhibition” value is reported as inactive: -4.51%.
With OC(CNCCC(c1ccccc1)c1ccccc1)COc1ccccc1 (centres undefined) the Potency was inconclusive: 10.4 µM [inhibitor, partial curve, poor fit].
In the case of Cc1ccc(-c2nn(-c3ccccc3)cc2NC(=O)CCl)cc1, the Potency is reported as inconclusive: 18.5 µM [inhibitor, single point].
In the case of COc1ccc(C(=O)Nc2cccc(-c3cnc4ccccc4n3)c2)cc1, the Potency is reported as inconclusive: 0.0029 µM [inhibitor, full curve, poor fit].
In the case of CN1CCN(C(=O)/C=C/c2ccccc2)CC1, the “activity change, negative = inhibition” value is reported as inactive: 90.2%.
For COc1ccccc1CC(NC(C)=O)C(=O)NC1CCN(C(=O)Nc2ccc(F)cc2)CC1 (centres undefined), the “activity change, negative = inhibition” value was inactive: -0.375%.
For COC(=O)c1ccccc1NC(=O)Nc1ccc(C)cn1, the activity change, negative = inhibition was inactive: -3.07% [at 5.75 µM].
In the case of CCCCNC(=O)C1CCN(S(=O)(=O)c2c(C)noc2/C=C\c2ccc(OC)cc2)CC1, the Potency is reported as active: 10.4 µM.
With CN1C2CCC1/C(=C\c1ccccc1F)C(=O)/C2=C/c1ccccc1F the Potency was inconclusive: 13.1 µM [inhibitor, single point].
For Nc1nc(-c2cc3c(cc2Cl)OCCO3)cs1, the Potency was inconclusive: 18.5 µM [inhibitor, single point].
In the case of O=C(CCNS(=O)(=O)c1ccccc1)N1CCCCCC1, the Potency is reported as inconclusive: 18.5 µM [inhibitor, single point].
For COCCNC(=S)N(CCc1c(C)[nH]c2ccc(Cl)cc12)Cc1cccs1, the Potency was inconclusive: 18.5 µM [inhibitor, single point].
In the case of COC(=O)C1CN(C(=O)c2ccc(OC(F)F)cc2)c2ccccc2O1 (centres undefined), the “activity change, negative = inhibition” value is reported as inactive: -22.9%.
For COc1ccccc1CN1CCN(Cc2nc(-c3ccc(C)cc3)oc2C)CC1, the Potency was inconclusive: 20.8 µM [inhibitor, partial curve, poor fit].
With COc1ccc(CNC(=O)COc2cc(=O)n(C)c3ccccc23)cc1 the Potency was inconclusive: 1.85 µM [inhibitor, partial curve, poor fit].
In the case of NC(=O)CCN(Cc1ccccc1)S(=O)(=O)c1ccccc1, the Potency is reported as inconclusive: 5.22 µM [inhibitor, partial curve].
With O=[N+]([O-])c1cccc(/C=N/Nc2cc(Cl)nc(-c3ccccc3)n2)c1 the Potency was inconclusive: 2.94 µM [inhibitor, full curve].
In the case of Cc1coc2c1C(=O)C(=O)c1c-2ccc2c(C)cccc12, the Potency is reported as inconclusive: 18.5 µM [inhibitor, single point].
In the case of CCCn1c(=N)c(C(=O)NCc2ccc3c(c2)OCO3)cc2c(=O)n3cccc(C)c3nc21, the “activity change, negative = inhibition” value is reported as inactive: 8.1%.
In the case of COc1cc(C2C(C#N)=C(N)Oc3cc(N)ccc32)cc(OC)c1OC (centres undefined), the Potency is reported as inconclusive: 9.28 µM [inhibitor, single point].
In the case of Cc1ccc(-c2csc3nc(C(C)C)oc(=O)c23)c(C)c1, the Potency is reported as inconclusive: 18.5 µM [inhibitor, single point].
With COc1ccccc1N(CC(=O)NCCc1ccccc1)C(=O)CCC(=O)Nc1cc(C)ccn1 the Potency was inconclusive: 11.7 µM [inhibitor, single point].
In the case of CC1=CC(=C(C#N)C#N)C=C(C)N1CCC(C)C, the Potency is reported as inconclusive: 13.1 µM [inhibitor, partial curve, poor fit].
For COc1cc(OC)cc(-c2c(-c3cccs3)c3cc(-c4ccc(SC)cc4)ccc3n2C)c1, the Potency was active: 2.08 µM.
In the case of O=C1C2C3C=CC(C4CC34)C2C(=O)N1c1cccc2ccccc12 (centres undefined), the Potency is reported as inconclusive: 11.7 µM [inhibitor, partial curve, poor fit].
With COc1cc2ccccc2cc1-c1nnc(COc2ccccc2)o1 the “activity change, negative = inhibition” value was inactive: 21.6%.
In the case of CC(C)c1ccc(S(=O)(=O)Nc2ccc(O)c(Sc3ncn[nH]3)c2)cc1, the Potency is reported as inconclusive: 18.5 µM [inhibitor, single point].
With CC(Oc1ccc2c(-c3ccccc3)cc(=O)oc2c1)C(=O)NCCCn1ccnc1 (centres undefined) the Potency was inconclusive: 0.208 µM [inhibitor, full curve, poor fit].
In the case of COc1ccccc1/C=C/C(=O)OCC(=O)c1c(N)n(C)c(=O)n(C)c1=O, the “activity change, negative = inhibition” value is reported as inactive: -6.06%.
With Cc1ccc(N(C)C(=O)Oc2ccc(C(=O)c3ccc(Cl)cc3)cc2)cc1 the Potency was active: 4.65 µM.
With Cc1cc(OCC(=O)NCc2ccccn2)cc(C)c1Br the Potency was inconclusive: 18.5 µM [inhibitor, single point].
In the case of c1ccc2c(c1)OCC(c1csc3ncnc(N4CCCCC4)c13)O2 (centres undefined), the Potency is reported as inconclusive: 11.7 µM [inhibitor, single point].
For Cc1c(CCC(=O)NCCCn2ccnc2)c(=O)oc2cc3oc4c(c3cc12)CCCC4, the Potency was inconclusive: 13.1 µM [inhibitor, single point].
With O=C(Nc1ccc(Cl)cc1)C1CCC(=O)N1Cc1ccccc1Cl (centres undefined) the Potency was active: 4.65 µM.
For Nc1nc(=S)[nH]c2c1C1(CCCC1)Cc1ccccc1-2, the Potency was inconclusive: 8.28 µM [inhibitor, single point].
For CC(=O)Nc1cccc(NC(=O)C2CC(=O)N(CCc3ccc(F)cc3)C2)c1 (centres undefined), the “activity change, negative = inhibition” value was inactive: 8.57%.
In the case of CCCOc1ccc(-c2nc(C#N)c(N3CCN(C)CC3)o2)cc1, the Potency is reported as inconclusive: 18.5 µM [inhibitor, single point].
In the case of CCCn1c(SCC(=O)Nc2ccc(C)c(S(=O)(=O)N3CCOCC3)c2)n[nH]c1=O, the Potency is reported as inconclusive: 18.5 µM [inhibitor, single point].
With CC(=O)c1cccc(OCC(=O)Nc2ccccc2N2CCOCC2)c1 the Potency was inconclusive: 13.1 µM [inhibitor, single point].
For COC(=O)c1ccccc1S(=O)(=O)N1CCC(C(=O)OCc2ccc([N+](=O)[O-])cc2)CC1, the “activity change, negative = inhibition” value was inactive: 14.2%.
For CC(C)Oc1cc(O)c2c(=O)c(-c3ccc(O)cc3)coc2c1, the Potency was active: 2.94 µM.
In the case of CCOC(=O)N1CCN(C(=O)c2cccc(NC3=NC4CS(=O)(=O)CC4S3)c2)CC1 (centres undefined), the Potency is reported as inconclusive: 18.5 µM [inhibitor, single point].
For CC1CCN(c2ccc(NC(=O)Cn3c(=O)oc4ccccc43)cc2)CC1, the Potency was inconclusive: 18.5 µM [inhibitor, single point].
In the case of O=C(CSc1nc(COc2ccccc2)nc2ccccc12)NC1CCCC1, the Potency is reported as inconclusive: 11.7 µM [inhibitor, single point].
In the case of COc1cccc(CC2(CO)CCCN(Cc3cc4ccccc4[nH]3)C2)c1 (centres undefined), the Potency is reported as inconclusive: 10.4 µM [inhibitor, single point].
For C/C(=N\OCC(=O)Nc1ccccc1C(C)(C)C)c1ccc2c(c1)OCCO2, the Potency was inconclusive: 2.08 µM [inhibitor, full curve, poor fit].
For Cc1ccc(SC(C)c2nc(-c3cccnc3)no2)cc1 (centres undefined), the “activity change, negative = inhibition” value was inactive: -14.1%.
With C[C@@]12CCC(=O)C=C1C=C[C@H]1[C@H]3CC[C@](O)(CCC(=O)O)[C@]3(C)CC[C@@H]12 the Potency was active: 6.42 µM.
For CCNc1c(NS(=O)(=O)c2ccc([N+](=O)[O-])cc2)c(=O)oc2ccccc12, the “activity change, negative = inhibition” value was inactive: 18.2%.
With COc1cc(S(=O)(=O)N2CCN=C2c2ccccc2)c(OC)cc1Cl the Potency was inconclusive: 18.5 µM [inhibitor, single point].
With O=C(NCc1ccccc1)Nc1cccn(Cc2ccccc2Cl)c1=O the Potency was inconclusive: 10.4 µM [inhibitor, single point].
In the case of CCOc1ccccc1NC(=O)Cn1[nH]c(=O)c2ccccc2c1=O, the “activity change, negative = inhibition” value is reported as inactive: -21.5%.
In the case of CCCCCC(C)NC(=O)c1ccoc1C (centres undefined), the “activity change, negative = inhibition” value is reported as inactive: -14.1%.
For COc1ccc(N2C(=O)NC(=O)/C(=C/c3ccc4c(c3)Cc3ccccc3-4)C2=O)cc1, the “activity change, negative = inhibition” value was inactive: 14.2%.
For O=C(C1COc2ccccc2O1)N1CCN(Cc2ccccc2)CC1 (centres undefined), the Potency was active: 8.28 µM.
With O=C(NN=C1CCN(Cc2ccccc2)CC1)c1cc(Br)ccc1O the Potency was active: 1.85 µM.
In the case of COC(=O)[C@@]1(Cc2ccc(OC)cc2)[C@H]2c3cc(C(=O)N4CCCC4)n(Cc4ccc(OC)c(OC)c4)c3C[C@H]2CN1C(=O)c1ccccc1, the Potency is reported as active: 1.47 µM.
For CCOc1ccc2nc(NC(=O)C3CCCN(S(=O)(=O)c4c(C)noc4C)C3)sc2c1 (centres undefined), the Potency was active: 13.1 µM.
For N#C/C(=C/c1ccc(Sc2nc3ccccc3[nH]2)o1)c1cccc(Br)c1, the “activity change, negative = inhibition” value was inactive: -97.7%.
For O=C(Nc1ccc(Br)cc1)N1CCCCC1, the “activity change, negative = inhibition” value was inactive: 15.3%.
For CC1(C)C(C=C(Cl)Cl)C1C(=O)N(Cc1cccc(Cl)c1)C1CCS(=O)(=O)C1 (centres undefined), the Potency was inconclusive: 13.1 µM [inhibitor, partial curve, poor fit].
For N#Cc1cccc(NC(=O)CCNS(=O)(=O)c2ccc3[nH]c(=O)oc3c2)c1, the Potency was inconclusive: 18.5 µM [inhibitor, single point].
With CCn1c(C)cc2c(c1=O)C(c1ccc3c(c1)OCO3)C(C#N)=C(N)O2 (centres undefined) the Potency was inconclusive: 16.5 µM [inhibitor, partial curve, poor fit].
With N#Cc1cc(C(=O)c2ccccc2OCC(=O)Nc2ccccc2Cl)cn(C2CCCCC2)c1=O the Potency was inconclusive: 2.33 µM [inhibitor, full curve, poor fit].
For Fc1ccccc1N1CCN(Cc2cccnc2)CC1, the Potency was inconclusive: 18.5 µM [inhibitor, single point].
